Assay results reported in US11535607B2, “Isoindolines as HDAC inhibitors” (Valo Health, Inc., priority 2018, dated 2022).
At least one structure is not confirmed: it was looked up by name or label, or the drawing left a doubt.

The chains behind the UniProt entries cited, without tags or fusion partners. Where a name states a change or a piece, a line headed by the entry shows the natural chain unless it says otherwise.
UniProt Q96DB2: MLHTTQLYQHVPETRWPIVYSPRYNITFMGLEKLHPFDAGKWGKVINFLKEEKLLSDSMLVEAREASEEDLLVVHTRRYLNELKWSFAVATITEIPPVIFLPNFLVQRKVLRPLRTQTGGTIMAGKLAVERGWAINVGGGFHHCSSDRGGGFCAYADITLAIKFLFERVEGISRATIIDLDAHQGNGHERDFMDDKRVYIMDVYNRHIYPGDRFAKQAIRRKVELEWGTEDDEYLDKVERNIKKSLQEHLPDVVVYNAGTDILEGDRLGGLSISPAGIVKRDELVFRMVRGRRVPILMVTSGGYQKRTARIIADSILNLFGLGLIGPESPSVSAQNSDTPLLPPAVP

Assays:
full-length human HDAC11 = full-length human HDAC11 (Homo sapiens (Human), UniProt Q96DB2); experiment: HDAC11 deacetylase electrophoretic mobility shift assay (Nanosyn); type: biochemical; settings: relative to the tetrahydroisoquinoline core
Experimental: The measurement of HD AC 11 deacetylase activity was performed using an electrophoretic mobility shift assay by Nanosyn (Santa Clara, Calif.). Full length human recombinant HD AC 11 protein was expressed in baculoviral system and purified by affinity chromatography. The enzymatic reactions were assembled in 384 well plates in a total volume of 25 μL in a reaction buffer composing: 100 mM HEPES, pH 7.5, 25 mM KCl, 0.1% bovine serum albumin, 0.01% Triton X-100, 1% DMSO (from compounds), 2 μM of the fluorescently labeled peptide substrate and enzyme. The enzyme was added at a final concentration of 10 nM. The peptide substrate FAM-RHKK(tri-fluor-Ac)—NH2 was used. The compounds were tested at 12 concentrations spaced by 3× dilution intervals. […]
The terminated assay plates were analyzed on LabChip® 3000 microfluidic electrophoresis instrument (Perkin Elmer/Caliper Life Sciences). The fluorescence intensity of the electrophoretically separated de-acetylated product and substrate peptide was measured. Activity in each sample was determined as the product to sum ratio (PSR): P/(S+P), where P is the peak height of the product peptide and S is the peak height of the substrate peptide. […] The IC50 values of inhibitors were determined by fitting the percent inhibition curves with 4 parameter dose-response model using XLfit 4 software.

HDAC11 = HDAC11 (Homo sapiens (Human), UniProt Q96DB2); experiment: Lipophilic efficiency (pIC50 HDAC11 - clogD7.4)

For `O=C(NO)c1cccc2c1CN(c1nc3ccccc3[nH]1)C2` [Compound 1-6, 2-(1H-benzo[d]imidazol-2-yl)-N-hydroxyisoindoline-4-carboxamide], the “increase in potency against HDAC11” value (full-length human HDAC11) was over 10 fold, the LipE (HDAC11; pIC50 HDAC11 - clogD7.4, Table 4) was “++ (indicates 5.5<LipE≤6.5)” and the LipE (HDAC11; pIC50 HDAC11 - clogD7.4, Table 5) was “++ (indicates 5.5<LipE≤6.5)”.
